Earlier results in patent US20210290610A1, “COMBINATION OF FXR AGONISTS” (priority 2016, published 2021).
At least one compound was matched to its structure with a doubt left.

Tested on: nonalcoholic steatohepatitis patients
Conditions: cited from earlier work

CC[C@H]1[C@@H](O)[C@@H]2[C@H](CC[C@]3(C)[C@@H]([C@H](C)CCC(=O)O)CC[C@@H]23)[C@@]2(C)CC[C@@H](O)C[C@@H]12 [obeticholic acid, Obeticholic acid]
NAS: significant improvement in NAS
